{"source": "patent US7005257B1", "about": "“Detection of antibiotic resistance in microorganisms” (priority 1998, dated 2006)", "origin": "cited, not measured here", "key": {"[1]": {"system": "Helicobacter", "settings": "monotherapy with the antibiotic; cited from earlier work"}, "[2]": {"system": "E. coli", "parameters": "key: HS, hypersensitive; R, resistant; S, sensitive", "settings": "cited from earlier work"}}, "note": "Read-outs that look alike come from different tables or passages of the source. At least one structure is not confirmed: it was looked up by name or label, or the drawing left a doubt. Some results were stated once for a whole list of compounds, not compound by compound. Some ranges recur; such a range may be that of the whole group of compounds.", "data": [{"molecule": "CC1(C)S[C@@H]2[C@H](NC(=O)[C@H](N)c3ccc(O)cc3)C(=O)N2[C@H]1C(=O)O", "note": "[amoxycillin]", "values": [{"measurement": "Eradication of the organisms, share of the treatments", "setting": "[1]", "value": "0–15%"}]}, {"molecule": "CCC[C@@H]1C[C@@H](C(=O)N[C@@H]([C@H]2O[C@H](SC)[C@H](O)[C@@H](O)[C@H]2O)[C@H](C)Cl)N(C)C1", "note": "[clindamycin]", "values": [{"measurement": "Phenotype", "setting": "[2]; 23S rRNA mutation G2032A", "value": "R"}, {"measurement": "Phenotype", "setting": "[2]; 23S rRNA mutation G2032C", "value": "S"}, {"measurement": "Phenotype", "setting": "[2]; 23S rRNA mutation G2032U", "value": "S"}]}, {"molecule": "CC[C@H]1OC(=O)[C@H](C)[C@@H](O[C@H]2C[C@@](C)(OC)[C@@H](O)[C@H](C)O2)[C@H](C)[C@@H](O[C@@H]2O[C@H](C)C[C@H](N(C)C)[C@H]2O)[C@](C)(O)C[C@@H](C)C(=O)[C@H](C)[C@@H](O)[C@]1(C)O", "note": "[erythromycin]", "values": [{"measurement": "Eradication of the organisms, share of the treatments", "setting": "[1]", "value": "0–15%"}]}, {"molecule": "CN(C)[C@@H]1C(O)=C(C(N)=O)C(=O)[C@@]2(O)C(O)=C3C(=O)c4c(O)cccc4[C@@](C)(O)[C@H]3C[C@@H]12", "note": "[tetracycline]", "values": [{"measurement": "Eradication of the organisms, share of the treatments", "setting": "[1]", "value": "0–15%"}]}, {"molecule": "nitrofuran", "values": [{"measurement": "Eradication of the organisms, share of the treatments", "setting": "[1]", "value": "0–15%"}]}]}
